Assay results taken from the supplement of paper PMC12067093, “Discovery and optimisation of a covalent ligand for TRIM25 and its application to targeted protein ubiquitination” (Chemical Science, 2025).
The other results are listed elsewhere or left out.

Chains of the proteins cited; added tags and fusions are not shown. Lines headed by an entry give the natural chain unless they say otherwise; changes in a name come on top.
UniProt Q05469: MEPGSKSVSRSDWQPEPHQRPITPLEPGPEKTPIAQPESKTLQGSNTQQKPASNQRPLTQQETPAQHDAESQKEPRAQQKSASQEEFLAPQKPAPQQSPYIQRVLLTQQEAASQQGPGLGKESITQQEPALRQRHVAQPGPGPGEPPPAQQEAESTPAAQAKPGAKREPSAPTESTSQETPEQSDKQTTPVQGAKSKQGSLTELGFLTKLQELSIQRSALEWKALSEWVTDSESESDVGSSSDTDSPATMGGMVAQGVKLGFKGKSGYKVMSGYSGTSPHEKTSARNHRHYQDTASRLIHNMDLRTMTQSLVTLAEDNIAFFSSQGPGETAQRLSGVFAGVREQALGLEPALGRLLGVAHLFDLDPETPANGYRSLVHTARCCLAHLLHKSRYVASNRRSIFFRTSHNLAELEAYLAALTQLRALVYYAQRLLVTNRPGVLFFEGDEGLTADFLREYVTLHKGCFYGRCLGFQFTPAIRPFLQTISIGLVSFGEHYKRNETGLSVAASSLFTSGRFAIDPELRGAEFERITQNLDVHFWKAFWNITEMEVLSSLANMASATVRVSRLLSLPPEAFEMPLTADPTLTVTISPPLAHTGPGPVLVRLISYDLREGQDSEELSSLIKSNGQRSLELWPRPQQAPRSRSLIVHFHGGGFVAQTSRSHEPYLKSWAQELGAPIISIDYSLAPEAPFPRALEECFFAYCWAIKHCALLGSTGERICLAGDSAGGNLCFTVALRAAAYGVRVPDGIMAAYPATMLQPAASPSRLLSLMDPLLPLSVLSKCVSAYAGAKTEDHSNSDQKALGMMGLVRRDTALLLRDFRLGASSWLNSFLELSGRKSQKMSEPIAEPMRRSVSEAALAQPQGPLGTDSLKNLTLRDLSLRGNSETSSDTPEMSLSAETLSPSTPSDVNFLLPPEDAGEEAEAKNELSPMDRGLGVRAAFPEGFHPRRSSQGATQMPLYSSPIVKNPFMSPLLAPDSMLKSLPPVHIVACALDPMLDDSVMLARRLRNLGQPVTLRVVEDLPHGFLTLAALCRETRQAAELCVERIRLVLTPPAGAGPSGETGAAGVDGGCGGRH

Target: LIPE_Q05469_991_SLPPVHIVACALDPMLDDSVMLAR (UniProt Q05469)
Assay: probe-labelled cysteine peptide fold change vs DMSO (competition) (log2 fold change); higher = less target engagement (more negative = stronger competition)
Conditions: THP-1, incubation time: 4 h
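Note: competitive chemoproteomic profiling in live THP-1 cells with an iodoacetamide desthiobiotin (IA-DTB) probe, comparing probe-labelled peptide intensities in compound-treated cells against DMSO-treated controls.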

CC1Cc2ccccc2N1C(=O)C1CCCN(C(=O)CCl)C1 (mixture of isomers) [TRIM25 ligand 11 (diastereomer mixture)]
probe-labelled cysteine peptide fold change (10 µM): 0.261 | probe-labelled cysteine peptide fold change (50 µM): 0.166
